Data on 40 compounds can be found in PubChem BioAssay AID1347431 (National Center for Advancing Translational Sciences (NCATS), 2020).

The campaign covered roughly 1,200 compounds. Fewer than 10 were called active. Calls come from the whole dose curve; as a rule, active = well fitted curve in the direction sought with a large enough effect; inconclusive = small, poorly fitted or top-dose-only effect, or another doubt; inactive = no such curve, though single readings can be large or run the other way. Some of the results follow.

The nature of the assay: Confirmatory qHTS assay for inhibitors of Activation Induced Cytidine Deaminase (AID): UDG signals. Note: 0% is about no effect. The settings on record: UDG coupled enzyme activity counter-screen; at 115 µM (top of the series) unless noted. The source says:
Assay Provider (PI) Patricia Gearhart Ph.D.
National Institute on Aging
National Institute of Health (NIH), Bethesda, MD
Assay Provider (PI) Rahul Kohli Ph.D.
Perelman School of Medicine
University of Pennsylvania, Philadelphia, PA
Activation-Induced Deaminase (AID) is a cytosine deaminase which converts cytosine into uracil within stretches of ssDNA. The presence of uracil in DNA initiates a cascade of mutagenic DNA repair to introduce point mutations and DNA double strand breaks. Specific targeting of AID to the immunoglobulin heavy chain loci (Igh) promotes mutagenesis in the antibody variable region for somatic hypermutation (SHM) or switch regions leading to class switch recombination (CSR). However, AID also plays a role in accumulating unnecessary mutations across the genome. Mis-targeting of AID results in the initiation of tumor development and leads to greater drug resistance among cancer cells when continually expressed. To identify an AID inhibitor, a small molecule library will be screened in collaboration with NCATS core facility at NIH. To confirm biological function, inhibitors will be examined in an in vitro murine B-cell activation assay and subsequent secondary validation screens. Top molecules will be further screened to identify inhibitory efficacy against a wild type primary splenocytes assay. Using these approaches, we hope to identify a small molecule with great efficacy and low toxicity for use as a molecular probe to further characterize AID's intricacies, or even as a therapeutic.
A FRET based analysis of cytosine deamination, was developed to identify potential inhibitors of AID catalytic activity. This screen has two signal output, Read 1 evaluates the AID inhibition response. The second readout (Read 2) evaluates UDG response and is uses as a counterscreen to exclude false positive inhibitors. Inhibition in AID and inactivity in the UDG signal is the desired outcome for this assay.
SEQUENCE No. (e.g., 1, 2, 3, etc.); […] (e.g., Cells, Incubation, Reagent, etc.); VALUE; DESCRIPTION
1a; Reagent; 3 uL; [4/3x] 1 uM AID/2.67 U/mL UDG
1b; Reagent; 3 uL; 2 U/mL UDG
1c; Reagent; 3 uL; 1 uM AID
2a; Compound; 46 nL; Follow-up plates (0.64 uM - 10 mM)
2b; Control; 46 nL; ATA ([…] - 10 mM)
3; Time; 10 min; incubation at room temperature
5; Time; 4 hr; incubation at room temperature
6; Reagent; 4 uL; [2x] 250 mM NaOH
7; Time; 15 sec; centrifuge at 1000 rpm
8; Time; 30 min; incubation at room temperature
9a; Detection; fluorescence (Read 1: AID); EnVision (PerkinElmer) plate reader, 540 excitation and 590 emission filters
9b; Detection; fluorescence (Read 2: UDG); EnVision (PerkinElmer) plate reader, 560 excitation and 665 emission filters
NOTES (numbers refer to sequence above)
1a; Reagents were dispensed in a medium-binding black solid-bottom Greiner plates (789176F) using a BioRptr liquid dispenser. Dispense 3 uL of [4/3x] 1 uM AID (provided by Kohli lab) and [4/3x] 2 U/mL UDG (NEB M0280L) into columns 1, 2, 5 to 48.
1b; Dispense 3 uL of [4/3x] 2 U/mL UDG into column 3.
1c; Dispense 3 uL of [4/3x] 1 uM AID into column 4.
2a; Compound (7-points [uM]: 0.64; 3.2; 16; 80; 400; 2,000; 10,000; […]) double pin-transferred (Dip Factor = 2) using the Kalypsys (Wako USA) pintool equipped with a 1536 pinhead for a final concentration range of 7.32 nM - 114 uM.
2b; 10 mM Aurintricarboxylic Acid (Sigma A1895) (ATA, 8-point, n = 2, 1:2.5 dilution in column 2) double pin-transferred (Dip Factor = 2) using the Kalypsys (Wako USA) pintool equipped with a 1536 pinhead for a [final] range of 186 nM - 114 uM.
3; Room temperature incubation.
4; Dispense 1 uL of substrate mixture from the Kohli lab [4x] […] DJC20 and [4x] 250 nM DJC23 into columns 1 to 48 .
5; Room temperature incubation.
6; Dispense 4 uL of substrate mixture [2x] 250 mM NaOH into columns 1 to 48.
7; Centrifugation step to remove bubbles.
8; Room temperature incubation
9a; Fluorescence signal (column label AID) was read using the EnVision plate reader. […]
In the case of `Cc1cccc(N2CCN(C(=O)c3sc4nc5n(c(=O)c4c3C)CCC5)CC2C)c1` (stereo not given), the activity change, negative = inhibition is inactive: 1.75%. With `Cc1oc(-c2ccccc2Cl)nc1CS(=O)CC(=O)N1CCN(c2cccc(C(F)(F)F)c2)CC1` (stereo not given) the figure was inactive: 1.61%; with `CCCc1cnc2c(c1SCc1cccc(C)c1)c(=O)n(C)c(=O)n2C`, inactive: -1.25%. Turning to `CCOC(=O)c1ccc(-n2c(N)c(C(=O)OC)c3nc4ccccc4nc32)cc1`, the activity change, negative = inhibition was inactive: -1.19%. The result for `O=C(Nc1cccc(Cl)c1)c1c(NC(=O)C(F)(F)F)sc2c1CCCC2` reads inactive: 1.29%. With `CCOC(=O)c1c(C)n(-c2ccccc2)c2ccc(OC(=O)c3ccccc3NC(=O)C(C)(C)C)cc12` the figure was inactive: 6.08%; with `Cc1ccc(N(Cc2cccs2)C(=O)COc2cccc(C)c2)cc1`, inactive: -7.85%; with `CCn1cc2nc(SCc3ccc(F)cc3)n(CCc3ccccc3)c(=O)c2n1`, inactive: -5.53%. With `COCCCNC(=O)c1oc2c(c1C)-c1nn(Cc3ccccc3Cl)cc1CC2` the figure was inactive: -4.93%; with `CCC1=Nc2cc(C(=O)NCCCOC)ccc2Sc2ccc(Br)cc21`, inactive: -0.0759%; with `Cc1ccc(-n2ncc(C(=O)NCc3ccc4c(c3)OCO4)c2C2CCN(C(=O)OC(C)(C)C)CC2)c(C)c1`, inactive: -8.77%. As for `CN1CCN(C(=O)c2ccc3c(c2)N(Cc2ccc(C(F)(F)F)cc2)C(=O)c2ccccc2S3)CC1`, the activity change, negative = inhibition is inactive: -7.78%. The result for `Cc1cc(C)cc(N2C(=O)CSC23C(=O)N(Cc2c(F)cccc2Cl)c2ccccc23)c1` (stereo not given) reads inactive: -2.08%; that for `Cc1ccc(C)c(CN2C(=O)c3ccccc3S(=O)c3ccc(C(=O)N4CCCCC4)cc32)c1` (stereo not given), inactive: -10.3%; that for `O=C(NCCn1cc(SCc2ccc(C(F)(F)F)cc2)c2ccccc21)c1cccs1`, inactive: -12.3%. The result for `Cc1cccc(OC(C)C(=O)N2CCC(c3nc4ccccc4o3)CC2)c1C` (stereo not given) reads inactive: -9.18%; that for `COc1ccc(NCc2nc3ccccc3n2CCOc2ccccc2C)cc1`, inactive: -1.79%. As for `COc1ccc(C(CNC(=O)COc2cc(C)c(Cl)c(C)c2)N2CCCCC2)cc1` (stereo not given), the activity change, negative = inhibition is inactive: 8.19%.

With `CCN(CC)CCNC(=O)c1ccc2c(c1)sc1nc(-c3ccc(F)cc3)cn12`, the activity change, negative = inhibition was inactive: 10%. For the compound `Cc1ccc(CNC(=O)c2ccc3c(c2)nc(C)n3-c2cc(C)cc(C)c2)cc1`, the activity change, negative = inhibition is inactive: -8.08%. With `CCC1CCCCN1CCCNC(=O)c1cc2c(Cl)nc3ccccc3c2s1` (stereo not given) the figure was inactive: -3.88%. The result for `CCCCN(CCCC)CC(O)Cn1cc(/C=C/C(=O)c2ccccc2)c2ccccc21` (stereo not given) reads inactive: -1.73%. The result for `Brc1c(Br)c(Br)c2n[nH]nc2c1Br` reads inactive: 3%; that for `Cc1cc2ccccc2n1-c1ccc(C(=O)N2CCCCC2)s1`, inactive: -2.21%. Regarding `Cc1ccccc1CSc1nc2nc(C)c(Cc3ccccc3)c(C)n2n1`, the activity change, negative = inhibition was inactive: -8.79%. With `Cc1ccc2onc(CC(=O)N3CCN(c4cc(Cl)ccc4C)CC3)c2c1` the figure was inactive: -3.38%; with `CCc1ccc(-n2c(=O)c3c4c(sc3n(CC(=O)N3CCCCC3CC)c2=O)CCC4)cc1` (stereo not given), inactive: -7.42%; with `CCc1ccccc1-n1c(C)nc2cc(C(=O)NCCc3ccc(Cl)cc3)ccc21`, inactive: -15.8%. With `Cc1nc2nc(SCC(=O)NC3CCCCC3)nn2c(C)c1Cc1ccccc1Cl` the figure was inactive: -1.05%.

As to `CN(C)c1ccc(CN(Cc2ccco2)C(=O)c2ccc(C(C)(C)C)cc2)cc1`, the activity change, negative = inhibition was inactive: -10.2%.

Turning to `CCOC(=O)c1ccc(N2C(=O)c3[nH]nc(-c4ccccc4)c3C2c2ccc(CC)cc2)cc1` (stereo not given), the activity change, negative = inhibition was inactive: -4.52%. The result for `CC(C)(C)OC(=O)N1CCC(c2c(C(=O)NCc3cccc(Cl)c3)cnn2-c2ccc(F)cc2)CC1` reads inactive: -13.1%; that for `CCc1ccc(C(=O)c2cn(CC(=O)Nc3cccc(OC)c3)c3ccc(OC)cc3c2=O)cc1`, inactive: 1.76%. The result for `CCCCOc1ccc(-c2nn(-c3ccccc3)cc2C2NC(=O)NC(C)=C2C(=O)OCC)cc1` (stereo not given) reads inactive: -17.2%; that for `Cc1cccc(N2C(=O)N(CC(=O)C(C)(C)C)c3ccccc3S2(=O)=O)c1C`, inactive: 2.18%. With `Cc1cc2nnc(SCc3ccc(F)cc3)n2c2ccccc12` the figure was inactive: 0.488%; with `CCOc1ccc(C(=O)c2cn(CC(=O)Nc3ccc(OC)cc3)c3cc4c(cc3c2=O)OCCO4)cc1`, inactive: -3.24%; with `CCOc1ccc(C(=O)/C=C/c2cn(CC(O)CN3CCCCCC3)c3ccccc23)cc1` (stereo not given), inactive: -4.79%.

Regarding `COc1cccc(CNC(=O)Cn2c(=O)ccc3cc(S(=O)(=O)N4CCC(C)CC4)ccc32)c1`, the activity change, negative = inhibition is inactive: -4.92%.

For `CCOc1ccc(CCNc2ncnc3onc(-c4ccc(Cl)cc4)c23)cc1OCC`, the activity change, negative = inhibition was inactive: -4.41%.
